# Test results reported in US8748373B2, “Hepatitis B virus compositions and methods of use” (priority 2007, dated 2014).
# Some results were stated once for a whole list of compounds, not compound by compound.
# Test system: HDV
# Test: Inhibition of HDV infection of primary human hepatocytes, antigenomic HDV RNA by real-time PCR
# Format: cell-based
# Conditions: primary human hepatocytes, 2, 10 and 50 nM
# From the text: In order to test inhibitory activity of the IA and related proteins, primary human hepatocytes infected in the presence of 5% polyethylene glycol 8000 (Sigma) were used with in vitro assembled HDV at a multiplicity of 10 genome equivalents (GE) per cell, or by HBV at a multiplicity of 50 GE/cell. […] One related protein was the S1S2, lacking the Fc domain (FIG. 1B). Another was a synthetic peptide corresponding to positions 2-48 of the ayw PreS1, with myristoylation at the N terminal glycine as described in Engelke, et al., 2006, Hepatology, 43:750-760. After 7-8 days total, cell RNA was extracted and HDV antigenomic RNA and HBV RNA were quantitated using real-time PCR.
# Others have shown that peptides based on the N terminus of HBV preS1 are able to interfere with infection of primary hepatocytes and of HepaRG cells, a cell line made from a differentiated liver tumor (Gripon, et al., 2005, J. Virol., 79:1613-1622, Gripon, et al., 2002, Proc. Natl. Acad. Sci., USA 99:15655-15660). […] Secreted IAs were tested for their ability to interfere with the infection of primary human hepatocytes by HDV. For these studies the source of IA was simple dilutions of the media from transiently transfected cells that both expressed and secreted the IA. To assess HDV replication the total RNA was extracted after 7 days and antigenomic RNA was quantitated by real-time PCR.
sequence,measurement,value
"MAGWSSKPRKGMATNLSVPNPLGFFPDHQLD . . . HPQA [G2A, G13A]",Effect on HDV replication (fold inhibition),< 2 fold
